The record followed here is patent publication US7622552 (dated 2009).

The data set can be described thus: peptide synthesis. Particulars: whole synthesis, RPHPLC.

GEQKLISEEDL-NH2: the “final HPLC purity” value is over 95%.
